Some of the results follow. Residues, ends and D or L forms follow the SMILES beside them. *: point of attachment. Cbz = O=C(OCc1ccccc1)*
What was measured:
Test in all cases: log2 fold change, soluble protein after heating vs DMSO (PISA); higher = thermal stabilisation; K562 cells, 10 uM, 30 min; active = over 0.2 and 3.5 SD of the protein, either way, in both replicates (recomputed)
[1] = compound: C#Cc1cccc(Nc2ncnc3cc(OCCOC)c(OCCOC)cc23)c1 [erlotinib]
How it was run: (§1)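 K562 cells at 2×10^6 cells/mL were exposed to 10 μM compound for 30 min, then aliquots were heated for 3 min across 48°C-58°C, pooled, and extracted in PBS containing 0.5% NP-40 at 4°C. The supernatant after 21,000xg for 90 min was taken as soluble protein and measured by TMTpro 16plex LC-MS/MS with channel sums equalised. Thermal stability is reported relative to control samples, with values from duplicates. Fold changes are given on a log2 scale.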

Sequences of proteins named here, by UniProt entry; tags and fusion partners are left off. A change or cut given only in a name is not applied to a line headed by its entry.
UniProt Q7L9L4: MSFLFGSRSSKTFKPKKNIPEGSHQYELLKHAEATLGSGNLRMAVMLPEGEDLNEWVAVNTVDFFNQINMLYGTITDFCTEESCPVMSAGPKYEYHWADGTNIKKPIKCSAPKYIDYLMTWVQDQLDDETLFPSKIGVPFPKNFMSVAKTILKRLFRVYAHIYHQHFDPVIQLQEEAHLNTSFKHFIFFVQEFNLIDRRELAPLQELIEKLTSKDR
UniProt Q5TGZ0: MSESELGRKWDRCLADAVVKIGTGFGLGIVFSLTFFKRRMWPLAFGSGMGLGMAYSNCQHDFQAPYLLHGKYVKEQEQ
UniProt O95297: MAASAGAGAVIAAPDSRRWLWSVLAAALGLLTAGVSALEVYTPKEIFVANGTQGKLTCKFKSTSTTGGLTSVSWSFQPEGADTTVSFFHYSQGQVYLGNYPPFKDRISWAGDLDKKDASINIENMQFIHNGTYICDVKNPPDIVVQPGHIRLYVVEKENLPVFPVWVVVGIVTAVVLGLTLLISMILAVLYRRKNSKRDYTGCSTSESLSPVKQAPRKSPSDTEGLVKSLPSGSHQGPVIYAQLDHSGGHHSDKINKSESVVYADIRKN
UniProt Q99547: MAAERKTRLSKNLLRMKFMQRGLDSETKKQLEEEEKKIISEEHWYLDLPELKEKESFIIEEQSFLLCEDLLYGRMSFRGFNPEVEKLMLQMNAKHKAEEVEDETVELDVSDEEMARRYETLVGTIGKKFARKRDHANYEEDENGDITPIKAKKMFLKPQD
UniProt O95822: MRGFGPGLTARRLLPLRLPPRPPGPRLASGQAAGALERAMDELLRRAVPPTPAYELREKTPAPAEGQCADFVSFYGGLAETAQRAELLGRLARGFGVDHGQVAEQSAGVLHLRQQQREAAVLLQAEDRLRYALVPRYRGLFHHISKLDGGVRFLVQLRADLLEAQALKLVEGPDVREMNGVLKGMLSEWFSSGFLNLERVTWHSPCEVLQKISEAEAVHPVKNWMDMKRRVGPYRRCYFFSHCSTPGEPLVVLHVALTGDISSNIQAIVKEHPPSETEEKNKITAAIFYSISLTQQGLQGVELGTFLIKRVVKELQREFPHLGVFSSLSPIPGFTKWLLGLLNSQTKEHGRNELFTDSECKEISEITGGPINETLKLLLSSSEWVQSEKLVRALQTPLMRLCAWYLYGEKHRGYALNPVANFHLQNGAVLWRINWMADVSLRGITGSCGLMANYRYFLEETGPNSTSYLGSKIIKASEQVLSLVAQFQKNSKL
UniProt Q567V2: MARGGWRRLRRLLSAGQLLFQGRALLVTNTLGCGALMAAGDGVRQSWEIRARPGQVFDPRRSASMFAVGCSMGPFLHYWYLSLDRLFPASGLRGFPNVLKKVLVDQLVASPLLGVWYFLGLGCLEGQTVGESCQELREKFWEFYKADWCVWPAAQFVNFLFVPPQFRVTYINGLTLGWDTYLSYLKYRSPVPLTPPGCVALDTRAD
UniProt Q03111: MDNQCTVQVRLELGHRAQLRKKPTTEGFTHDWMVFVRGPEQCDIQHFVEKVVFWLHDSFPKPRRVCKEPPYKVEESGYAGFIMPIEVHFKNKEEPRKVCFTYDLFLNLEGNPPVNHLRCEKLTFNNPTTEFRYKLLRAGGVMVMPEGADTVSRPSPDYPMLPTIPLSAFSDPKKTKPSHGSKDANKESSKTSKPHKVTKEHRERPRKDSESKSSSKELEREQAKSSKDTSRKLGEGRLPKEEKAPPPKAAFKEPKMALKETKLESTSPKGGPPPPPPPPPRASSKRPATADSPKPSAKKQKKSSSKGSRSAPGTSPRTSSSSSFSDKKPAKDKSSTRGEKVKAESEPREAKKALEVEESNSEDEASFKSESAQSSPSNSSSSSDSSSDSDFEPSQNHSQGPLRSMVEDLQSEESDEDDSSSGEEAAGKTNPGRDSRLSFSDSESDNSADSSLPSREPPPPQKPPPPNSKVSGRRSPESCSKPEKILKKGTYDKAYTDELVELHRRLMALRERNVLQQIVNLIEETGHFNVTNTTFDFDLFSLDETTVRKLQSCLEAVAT
UniProt Q8TAP9: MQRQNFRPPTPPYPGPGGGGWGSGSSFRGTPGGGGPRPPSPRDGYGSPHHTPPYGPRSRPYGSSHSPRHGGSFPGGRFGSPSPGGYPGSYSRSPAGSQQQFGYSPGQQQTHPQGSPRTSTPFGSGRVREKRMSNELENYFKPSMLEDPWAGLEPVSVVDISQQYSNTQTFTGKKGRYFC

[2] = compound: C/C(=N\NC(=O)C1=CC(=CC=C1)S(=O)(=O)N2CCOCC2)/C3=C(C=CC(=C3)Cl)O
How it was run: as §1

[3] = compound: C1=CC(=C(C=C1Cl)C2=NC3=NC=CN=C3C(=N2)NC4=CC=NC=C4)F
How it was run: as §1

[4] = compound: C1=CC(=CC=C1C2=NC3=C(N2)C=C(C=C3)C(=O)N)OC4=CC=C(C=C4)Cl
How it was run: as §1

[5] = compound: C1=CC2=C(C=CC(=C2)/C=C\3/C(=O)NC(=NCC4=CC=CS4)S3)N=C1
How it was run: as §1

[6] = compound: C1=CC2=NC=CN=C2C=C1/C=C/3\C(=O)NC(=O)S3
How it was run: as §1

[7] = compound: C1=CC=C(C=C1)C2=NC(=C(N2)C3=CC=NC=C3)C4=CC(=C(C=C4)Cl)O
How it was run: as §1

[8] = compound: C1=CC=C2C(=C1)C3=NNC4=CC=CC(=C43)C2=O
How it was run: as §1

[9] = compound: C1CCN(C1)C(=O)NC2=CC=CC(=C2)NC3=NC=C(C(=N3)NCCC4=CN=CN4)Br
How it was run: as §1

[10] = compound: C1CN(CCC1(CC2=CC=C(C=C2)Cl)N)C3=NC=NC4=C3C=CN4
How it was run: as §1

[11] = compound: C1COCCN1CCN2C3=CC=CC=C3N=C2NC(=O)C4=CC(=CC=C4)[N+](=O)[O-] [IRAK-1-4 Inhibitor I]
How it was run: as §1

[12] = compound: C=CC(=O)N1CCC[C@@H](n2nc(-c3ccc(Oc4ccccc4)cc3)c3c(N)ncnc32)C1 [ibrutinib]
How it was run: as §1

[13] = compound: CC(=O)c1cnc2ccc(-c3cc(Cl)c(O)c(Cl)c3)nc2c1N[C@H]1CC[C@H](CN(C)C)CC1
How it was run: as §1

[14] = compound: CC(C)(C)Cn1c(N)nc2ccc(-c3[nH]c(C(C)(C)C)nc3-c3ccc(F)cc3)nc21 [ralimetinib]
How it was run: as §1

[15] = compound: CC(C)(O)CC(=O)NCCn1ccc2ncnc(Nc3ccc(Oc4cccc(C(F)(F)F)c4)c(Cl)c3)c21
How it was run: as §1

[16] = compound: CC(C)C1=C2N=C(C=C(N2N=C1)NCC3=CC=CC=C3)NCCCCCCN
How it was run: as §1

[17] = compound: CC(C)C[C@@H](C=O)NC(=O)[C@H](CC(C)C)NC(=O)[C@H](CC(C)C)NC(=O)OCc1ccccc1
How it was run: as §1

[18] = compound: CC(C)N(C[C@H]1O[C@@H](n2cnc3c(N)ncnc32)[C@H](O)[C@@H]1O)[C@H]1C[C@@H](CCc2nc3cc(C(C)(C)C)ccc3[nH]2)C1 [pinometostat]
How it was run: as §1

[19] = compound: CC1=C(C(CC(=O)N1)C2=CC=C(C=C2)C(F)(F)F)C(=O)NC3=C(C=C4C(=C3)C=NN4)F
How it was run: as §1

[20] = compound: CC1=C(C2=C(C=C1)C(=O)C3=CC=CC=C3N2CCCN)C
How it was run: as §1

Measured: log2 fold change

MRPL41 (UniProt Q8IXM3)
inactive: [1] -0.204 | [2] -0.137 | [3] -0.19 | [4] 0.052 | [5] -0.092 | [6] -0.053 | [7] -0.041 | [8] 0.162 | [9] 0.005 | [10] -0.221 | [11] -0.085 | [12] 0 | [13] 0.055 | [14] 0.01 | [15] 0.059 | [16] 0.07 | [17] 0.058 | [18] 0.161 | [19] -0.014 | [20] -0.026

MRPL20 (UniProt Q9BYC9)
inactive: [1] -0.106 | [2] -0.14 | [3] -0.153 | [4] 0.065 | [5] -0.056 | [6] 0 | [7] 0.047 | [8] 0.12 | [9] 0.003 | [10] -0.11 | [11] -0.157 | [12] -0.002 | [13] 0.11 | [14] 0.005 | [15] 0.06 | [16] 0.007 | [17] 0.075 | [18] 0.189 | [19] -0.009 | [20] -0.059

MOB1B isoform 2 (UniProt Q7L9L4)
inactive: [1] 0.019 | [2] -0.004 | [3] 0.054 | [4] 0.013 | [5] 0.018 | [6] 0.029 | [7] -0.023 | [8] -0.02 | [9] 0.027 | [10] 0.047 | [11] 0.072 | [12] -0.016 | [13] 0.002 | [14] -0.069 | [15] -0.02 | [16] 0.002 | [17] 0 | [18] -0.021 | [19] -0.005 | [20] -0.051

Two successive records out of the list so far:
MRPL20 (UniProt Q9BYC9)
inactive: [1] -0.106 | [2] -0.14 | [3] -0.153 | [4] 0.065 | [5] -0.056 | [6] 0 | [7] 0.047 | [8] 0.12 | [9] 0.003 | [10] -0.11 | [11] -0.157 | [12] -0.002 | [13] 0.11 | [14] 0.005 | [15] 0.06 | [16] 0.007 | [17] 0.075 | [18] 0.189 | [19] -0.009 | [20] -0.059

MOB1B isoform 2 (UniProt Q7L9L4)
inactive: [1] 0.019 | [2] -0.004 | [3] 0.054 | [4] 0.013 | [5] 0.018 | [6] 0.029 | [7] -0.023 | [8] -0.02 | [9] 0.027 | [10] 0.047 | [11] 0.072 | [12] -0.016 | [13] 0.002 | [14] -0.069 | [15] -0.02 | [16] 0.002 | [17] 0 | [18] -0.021 | [19] -0.005 | [20] -0.051

More results.

MRPL10 isoform 2 (UniProt Q7Z7H8)
inactive: [1] -0.15 | [2] -0.099 | [3] -0.07 | [4] 0.083 | [5] 0.009 | [6] -0.024 | [7] -0.005 | [8] 0.098 | [9] -0.03 | [10] -0.23 | [11] -0.12 | [12] -0.006 | [13] -0.026 | [14] -0.016 | [15] 0.002 | [16] -0.024 | [17] 0.052 | [18] 0.112 | [19] -0.01 | [20] -0.016

MRPL33 (UniProt O75394)
inactive: [1] -0.117 | [2] 0.033 | [3] -0.278 | [4] 0.104 | [5] -0.135 | [6] -0.064 | [7] 0.025 | [8] 0.078 | [9] -0.099 | [10] -0.236 | [11] -0.08 | [12] 0.093 | [13] 0.069 | [14] 0.062 | [15] -0.14 | [16] 0 | [17] 0.071 | [18] 0.072 | [19] -0.052 | [20] 0.17

MICOS10 (UniProt Q5TGZ0)
inactive: [1] -0.009 | [2] 0.053 | [3] 0.16 | [4] -0.022 | [5] 0.089 | [6] 0.05 | [7] 0.022 | [8] 0.093 | [9] -0.01 | [10] 0.014 | [11] -0.037 | [12] -0.015 | [13] 0.014 | [14] -0.175 | [15] -0.23 | [16] -0.063 | [17] -0.109 | [18] 0.007 | [19] 0.08 | [20] 0.188

MPZL1 (UniProt O95297)
inactive: [1] 0.019 | [2] 0.005 | [3] -0.044 | [4] 0 | [5] -0.022 | [6] 0.022 | [7] 0.006 | [8] -0.037 | [9] -0.015 | [10] -0.001 | [11] 0.045 | [12] 0.015 | [13] 0.011 | [14] -0.096 | [15] -0.01 | [16] 0.175 | [17] 0.069 | [18] -0.029 | [19] -0.039 | [20] 0.04

MPHOSPH6 (UniProt Q99547)
inactive: [1] 0.083 | [2] -0.036 | [3] -0.233 | [4] -0.007 | [5] -0.003 | [6] 0.014 | [7] 0.011 | [8] 0.009 | [9] -0.046 | [10] -0.156 | [11] -0.221 | [12] -0.009 | [13] -0.033 | [14] 0.004 | [15] 0.017 | [16] -0.114 | [17] 0.162 | [18] 0.101 | [19] -0.035 | [20] 0

MLYCD (UniProt O95822)
inactive: [1] 0.022 | [2] 0.026 | [3] 0.083 | [4] -0.012 | [5] -0.076 | [6] 0.061 | [7] 0.073 | [8] 0.012 | [9] -0.04 | [10] 0.047 | [11] 0.054 | [12] -0.074 | [13] 0.075 | [14] 0.043 | [15] -0.02 | [16] -0.036 | [17] -0.065 | [18] -0.003 | [19] -0.048 | [20] -0.041

MPV17L2 (UniProt Q567V2)
inactive: [1] 0.008 | [2] 0.018 | [3] 0.147 | [4] -0.005 | [5] 0.051 | [6] 0.046 | [7] 0.006 | [8] -0.053 | [9] -0.009 | [10] 0.068 | [11] 0.022 | [12] 0.087 | [13] 0.029 | [14] 0.013 | [15] -0.078 | [16] 0.163 | [17] -0.023 | [18] -0.033 | [19] -0.03 | [20] 0.048

MLLT1 (UniProt Q03111)
inactive: [1] 0.012 | [2] -0.053 | [3] -0.082 | [4] 0.027 | [5] 0.094 | [6] 0.002 | [7] 0.014 | [8] -0.061 | [9] 0.109 | [10] -0.074 | [11] -0.017 | [12] 0.063 | [13] -0.156 | [14] 0.05 | [15] -0.004 | [16] -0.124 | [17] 0.144 | [18] 0.024 | [19] 0.154 | [20] -0.133

MPLKIP (UniProt Q8TAP9)
inactive: [1] 0.004 | [2] -0.048 | [3] -0.028 | [4] -0.259 | [5] -0.014 | [6] 0.017 | [7] -0.044 | [8] -0.01 | [9] 0.028 | [10] -0.078 | [11] -0.002 | [12] -0.051 | [13] -0.217 | [14] -0.066 | [15] 0.016 | [16] 0.07 | [17] 0.02 | [18] 0.02 | [19] 0.048 | [20] 0.117

MRPL49 (UniProt Q13405)
inactive: [1] -0.05 | [2] -0.238 | [3] -0.059 | [4] 0.022 | [5] 0.06 | [6] 0.022 | [7] -0.104 | [8] 0.024 | [9] -0.008 | [10] -0.044 | [11] -0.107 | [12] -0.011 | [13] 0.05 | [14] -0.155 | [15] -0.02 | [16] 0.054 | [17] 0.23 | [18] 0.105 | [19] 0.046 | [20] 0.068

MRPL27 (UniProt Q9P0M9)
inactive: [1] 0.012 | [2] 0.027 | [3] -0.078 | [4] -0.005 | [5] -0.141 | [6] 0.048 | [7] -0.015 | [8] 0.148 | [9] 0.028 | [10] -0.177 | [11] -0.011 | [12] -0.028 | [13] 0.116 | [14] 0.112 | [15] -0.028 | [16] 0.219 | [17] 0.06 | [18] 0.167 | [19] 0.074 | [20] -0.112

MRPL51 (UniProt Q4U2R6)
inactive: [1] -0.098 | [2] -0.143 | [3] -0.274 | [4] 0.17 | [5] -0.105 | [6] 0 | [7] -0.03 | [8] 0.159 | [9] 0.054 | [10] -0.119 | [11] -0.091 | [12] 0.025 | [13] 0.124 | [14] 0.036 | [15] 0.037 | [16] -0.229 | [17] 0.127 | [18] 0.139 | [19] 0.159 | [20] -0.154

MRPL2 (UniProt Q5T653)
inactive: [1] -0.103 | [2] -0.149 | [3] 0.019 | [4] 0.101 | [5] -0.068 | [6] 0.005 | [7] -0.072 | [8] 0.171 | [9] -0.045 | [10] -0.083 | [11] -0.087 | [12] -0.069 | [13] 0.102 | [14] 0.023 | [15] 0.149 | [16] 0.041 | [17] 0.078 | [18] 0.111 | [19] 0.046 | [20] -0.103

Source: the supplement of paper PMC10849652
